Results: the supplement of paper PMC12823440, “Inhibitors supercharge kinase turnover through native proteolytic circuits” (Nature, 2025)
Counter-ions that a name gives are not always drawn. This is one part of the list. The calls rarely recur for the same compound in another form.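 Kinases, fused to nanoluciferase, were expressed in K562 cells; luminescence was measured every 4 h from 2 to 18 h as percent of control (DMSO = 100%, positive control = 0%). A time point is decreased if signal falls significantly (2 sigma). Hits were called by the authors by a rule that is not shown; the count of time points alone does not decide it.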

Chains of the proteins cited; added tags and fusions are not shown. Lines headed by an entry give the natural chain unless they say otherwise; changes in a name come on top.
UniProt P00519, whole entry: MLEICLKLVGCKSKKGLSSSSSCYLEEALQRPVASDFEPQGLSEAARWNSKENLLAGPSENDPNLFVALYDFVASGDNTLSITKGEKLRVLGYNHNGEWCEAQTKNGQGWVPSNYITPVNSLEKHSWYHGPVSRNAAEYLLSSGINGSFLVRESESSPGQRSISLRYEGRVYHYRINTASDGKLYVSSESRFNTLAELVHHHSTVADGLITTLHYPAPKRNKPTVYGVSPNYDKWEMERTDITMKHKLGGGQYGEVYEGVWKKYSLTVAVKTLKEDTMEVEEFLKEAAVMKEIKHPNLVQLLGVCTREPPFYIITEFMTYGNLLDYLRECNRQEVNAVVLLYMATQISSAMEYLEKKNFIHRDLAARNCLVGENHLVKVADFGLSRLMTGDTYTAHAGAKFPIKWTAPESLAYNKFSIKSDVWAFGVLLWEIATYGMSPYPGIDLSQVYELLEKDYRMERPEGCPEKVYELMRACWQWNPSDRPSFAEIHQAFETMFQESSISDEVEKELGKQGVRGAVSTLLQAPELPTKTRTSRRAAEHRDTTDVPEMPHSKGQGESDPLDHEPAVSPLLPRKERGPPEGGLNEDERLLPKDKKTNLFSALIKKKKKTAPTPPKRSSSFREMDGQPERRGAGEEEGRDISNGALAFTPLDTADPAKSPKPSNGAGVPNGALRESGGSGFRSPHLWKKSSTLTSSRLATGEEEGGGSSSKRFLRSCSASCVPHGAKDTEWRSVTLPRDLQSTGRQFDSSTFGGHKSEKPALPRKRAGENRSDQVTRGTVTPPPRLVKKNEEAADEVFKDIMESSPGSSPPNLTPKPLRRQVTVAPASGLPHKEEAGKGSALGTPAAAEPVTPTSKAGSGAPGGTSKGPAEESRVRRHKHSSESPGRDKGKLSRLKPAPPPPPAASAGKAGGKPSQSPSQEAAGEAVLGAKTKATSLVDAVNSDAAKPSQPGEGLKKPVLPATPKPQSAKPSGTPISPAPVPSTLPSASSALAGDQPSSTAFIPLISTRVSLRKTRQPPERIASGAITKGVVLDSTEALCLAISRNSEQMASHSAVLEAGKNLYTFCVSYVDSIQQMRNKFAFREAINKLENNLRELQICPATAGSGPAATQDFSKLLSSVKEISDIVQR
UniProt P31749: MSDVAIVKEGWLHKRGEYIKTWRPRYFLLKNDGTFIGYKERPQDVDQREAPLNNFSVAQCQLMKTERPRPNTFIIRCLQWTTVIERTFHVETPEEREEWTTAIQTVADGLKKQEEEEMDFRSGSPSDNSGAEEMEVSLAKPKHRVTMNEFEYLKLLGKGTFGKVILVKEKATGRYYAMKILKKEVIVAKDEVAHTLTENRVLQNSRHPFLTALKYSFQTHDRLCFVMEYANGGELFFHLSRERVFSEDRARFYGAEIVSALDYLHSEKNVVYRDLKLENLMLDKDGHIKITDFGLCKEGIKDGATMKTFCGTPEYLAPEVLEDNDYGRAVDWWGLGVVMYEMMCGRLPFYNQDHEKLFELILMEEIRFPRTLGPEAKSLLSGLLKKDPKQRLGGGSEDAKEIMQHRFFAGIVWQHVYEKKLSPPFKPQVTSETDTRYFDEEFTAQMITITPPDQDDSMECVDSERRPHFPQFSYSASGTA
UniProt Q9UM73: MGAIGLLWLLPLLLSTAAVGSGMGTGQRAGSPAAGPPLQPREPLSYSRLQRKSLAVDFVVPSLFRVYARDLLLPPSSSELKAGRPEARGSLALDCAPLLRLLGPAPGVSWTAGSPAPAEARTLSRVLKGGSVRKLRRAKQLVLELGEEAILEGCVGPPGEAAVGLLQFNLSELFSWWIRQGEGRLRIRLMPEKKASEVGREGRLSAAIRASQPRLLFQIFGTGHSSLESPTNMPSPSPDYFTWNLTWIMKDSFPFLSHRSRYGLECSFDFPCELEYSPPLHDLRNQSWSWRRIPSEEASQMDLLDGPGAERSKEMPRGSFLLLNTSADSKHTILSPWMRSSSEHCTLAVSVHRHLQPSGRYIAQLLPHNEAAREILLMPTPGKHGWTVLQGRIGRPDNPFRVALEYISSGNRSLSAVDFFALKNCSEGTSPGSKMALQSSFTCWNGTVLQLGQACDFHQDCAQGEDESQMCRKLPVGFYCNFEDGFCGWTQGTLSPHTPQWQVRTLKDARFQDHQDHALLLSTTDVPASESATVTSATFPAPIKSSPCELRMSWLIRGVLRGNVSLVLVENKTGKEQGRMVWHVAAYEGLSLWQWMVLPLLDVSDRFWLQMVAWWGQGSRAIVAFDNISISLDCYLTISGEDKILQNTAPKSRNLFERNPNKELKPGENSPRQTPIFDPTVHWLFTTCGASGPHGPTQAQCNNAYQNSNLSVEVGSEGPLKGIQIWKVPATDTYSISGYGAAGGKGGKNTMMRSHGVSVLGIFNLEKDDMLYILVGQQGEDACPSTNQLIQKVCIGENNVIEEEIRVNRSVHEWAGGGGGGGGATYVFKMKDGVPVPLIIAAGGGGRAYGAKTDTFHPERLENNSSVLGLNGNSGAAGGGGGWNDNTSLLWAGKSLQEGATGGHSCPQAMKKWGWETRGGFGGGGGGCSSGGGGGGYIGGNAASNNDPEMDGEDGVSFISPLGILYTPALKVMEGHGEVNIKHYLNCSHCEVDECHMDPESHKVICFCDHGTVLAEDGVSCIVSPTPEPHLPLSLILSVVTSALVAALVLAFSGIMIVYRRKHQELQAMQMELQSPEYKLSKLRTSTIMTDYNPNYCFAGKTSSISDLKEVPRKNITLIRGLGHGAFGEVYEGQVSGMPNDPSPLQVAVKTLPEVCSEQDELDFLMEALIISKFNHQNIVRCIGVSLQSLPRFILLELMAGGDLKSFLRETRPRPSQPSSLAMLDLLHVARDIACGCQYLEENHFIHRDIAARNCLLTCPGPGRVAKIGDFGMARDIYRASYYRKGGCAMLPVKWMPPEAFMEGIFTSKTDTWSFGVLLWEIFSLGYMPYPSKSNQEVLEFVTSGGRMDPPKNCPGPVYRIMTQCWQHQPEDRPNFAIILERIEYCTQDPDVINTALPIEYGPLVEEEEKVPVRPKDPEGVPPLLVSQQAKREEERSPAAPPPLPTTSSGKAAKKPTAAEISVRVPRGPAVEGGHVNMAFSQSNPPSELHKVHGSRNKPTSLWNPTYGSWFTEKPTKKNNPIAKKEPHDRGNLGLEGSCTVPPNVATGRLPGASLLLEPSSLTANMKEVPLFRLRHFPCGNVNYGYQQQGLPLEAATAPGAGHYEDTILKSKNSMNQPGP
UniProt P10398: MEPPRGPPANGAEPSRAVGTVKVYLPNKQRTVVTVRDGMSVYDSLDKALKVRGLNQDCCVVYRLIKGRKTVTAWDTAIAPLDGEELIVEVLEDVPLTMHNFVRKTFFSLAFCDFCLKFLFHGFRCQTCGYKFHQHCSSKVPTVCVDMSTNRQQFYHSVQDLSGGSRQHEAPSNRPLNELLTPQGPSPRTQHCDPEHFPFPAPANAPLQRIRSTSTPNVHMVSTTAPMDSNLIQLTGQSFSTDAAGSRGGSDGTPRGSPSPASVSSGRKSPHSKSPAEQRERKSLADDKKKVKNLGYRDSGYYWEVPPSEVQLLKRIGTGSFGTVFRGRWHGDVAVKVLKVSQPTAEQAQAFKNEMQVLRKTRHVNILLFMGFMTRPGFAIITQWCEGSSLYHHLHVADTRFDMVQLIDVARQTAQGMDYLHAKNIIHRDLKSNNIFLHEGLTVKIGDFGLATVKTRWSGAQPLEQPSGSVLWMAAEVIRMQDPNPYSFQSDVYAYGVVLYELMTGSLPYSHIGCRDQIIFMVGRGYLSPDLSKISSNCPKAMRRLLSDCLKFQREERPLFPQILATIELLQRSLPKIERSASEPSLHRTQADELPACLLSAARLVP
UniProt O14965: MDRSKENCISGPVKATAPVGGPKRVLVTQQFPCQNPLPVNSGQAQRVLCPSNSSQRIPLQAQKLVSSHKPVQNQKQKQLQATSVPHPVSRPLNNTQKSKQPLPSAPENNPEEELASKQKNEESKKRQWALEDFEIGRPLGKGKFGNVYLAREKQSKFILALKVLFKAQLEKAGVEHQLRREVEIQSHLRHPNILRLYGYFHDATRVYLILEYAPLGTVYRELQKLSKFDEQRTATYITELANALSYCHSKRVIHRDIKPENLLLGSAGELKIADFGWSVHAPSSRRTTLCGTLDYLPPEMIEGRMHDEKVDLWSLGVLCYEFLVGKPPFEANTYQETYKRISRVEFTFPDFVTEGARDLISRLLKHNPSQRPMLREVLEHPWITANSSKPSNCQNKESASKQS
UniProt Q96GD4, whole entry: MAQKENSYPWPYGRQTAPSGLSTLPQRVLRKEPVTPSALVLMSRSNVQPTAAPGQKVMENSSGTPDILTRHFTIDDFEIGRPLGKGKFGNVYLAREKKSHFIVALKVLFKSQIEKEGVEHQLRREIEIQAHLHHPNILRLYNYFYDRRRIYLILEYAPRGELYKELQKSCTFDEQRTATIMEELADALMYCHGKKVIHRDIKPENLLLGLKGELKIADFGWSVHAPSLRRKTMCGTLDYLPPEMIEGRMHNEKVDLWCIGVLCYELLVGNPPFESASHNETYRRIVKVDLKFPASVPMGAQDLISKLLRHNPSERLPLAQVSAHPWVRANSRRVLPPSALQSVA
UniProt Q9UQB9: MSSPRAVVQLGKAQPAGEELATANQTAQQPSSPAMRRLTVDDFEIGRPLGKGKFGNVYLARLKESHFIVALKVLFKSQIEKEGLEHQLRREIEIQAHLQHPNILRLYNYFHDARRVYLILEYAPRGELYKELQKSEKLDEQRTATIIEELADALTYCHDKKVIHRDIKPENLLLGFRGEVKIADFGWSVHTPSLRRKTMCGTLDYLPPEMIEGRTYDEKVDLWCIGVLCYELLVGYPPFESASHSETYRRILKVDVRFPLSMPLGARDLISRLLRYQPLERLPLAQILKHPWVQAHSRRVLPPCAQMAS
UniProt P51451: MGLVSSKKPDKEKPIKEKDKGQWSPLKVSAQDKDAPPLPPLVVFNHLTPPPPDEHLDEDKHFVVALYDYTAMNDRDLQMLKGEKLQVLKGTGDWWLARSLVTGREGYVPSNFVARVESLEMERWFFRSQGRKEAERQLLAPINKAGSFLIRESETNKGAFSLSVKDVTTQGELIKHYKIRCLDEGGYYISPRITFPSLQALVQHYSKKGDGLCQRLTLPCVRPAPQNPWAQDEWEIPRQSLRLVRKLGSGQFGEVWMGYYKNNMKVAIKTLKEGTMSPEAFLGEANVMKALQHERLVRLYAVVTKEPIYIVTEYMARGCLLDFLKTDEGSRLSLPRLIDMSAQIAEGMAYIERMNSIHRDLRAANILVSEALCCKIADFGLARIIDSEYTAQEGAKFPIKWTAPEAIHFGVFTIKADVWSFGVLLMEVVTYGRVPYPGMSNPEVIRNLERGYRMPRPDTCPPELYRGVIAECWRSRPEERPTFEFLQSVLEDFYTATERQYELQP
UniProt P15056, whole entry, looked up: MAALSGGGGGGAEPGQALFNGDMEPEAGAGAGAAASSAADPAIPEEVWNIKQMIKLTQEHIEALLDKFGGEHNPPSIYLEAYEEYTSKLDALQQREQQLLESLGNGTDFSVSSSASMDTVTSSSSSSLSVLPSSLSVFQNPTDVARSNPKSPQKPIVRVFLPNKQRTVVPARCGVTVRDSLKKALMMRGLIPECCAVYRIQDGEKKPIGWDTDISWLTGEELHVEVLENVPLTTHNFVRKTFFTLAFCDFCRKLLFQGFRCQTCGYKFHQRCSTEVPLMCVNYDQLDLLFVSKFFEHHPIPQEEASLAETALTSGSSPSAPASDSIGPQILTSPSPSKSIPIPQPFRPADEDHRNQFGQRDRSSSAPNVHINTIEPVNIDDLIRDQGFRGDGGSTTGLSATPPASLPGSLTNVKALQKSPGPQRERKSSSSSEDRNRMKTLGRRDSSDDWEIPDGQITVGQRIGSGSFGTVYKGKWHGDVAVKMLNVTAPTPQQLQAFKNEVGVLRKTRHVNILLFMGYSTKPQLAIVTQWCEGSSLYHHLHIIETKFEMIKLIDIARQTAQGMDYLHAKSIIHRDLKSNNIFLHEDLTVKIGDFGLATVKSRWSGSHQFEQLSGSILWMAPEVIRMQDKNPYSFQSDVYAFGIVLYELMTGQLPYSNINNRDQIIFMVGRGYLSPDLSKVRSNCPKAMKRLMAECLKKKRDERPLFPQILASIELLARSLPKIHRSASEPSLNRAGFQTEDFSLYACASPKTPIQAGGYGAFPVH

How the values were obtained:
Assay in all cases: kinase-Nluc reporter destabilization hit call (1 = scored as downregulated) (binary); higher = compound decreases kinase abundance
Settings in all cases: K562; 2-18 h
ABL1 = ABL1 (UniProt P00519)
AKT1 = AKT1 (UniProt P31749)
ALK = ALK (UniProt Q9UM73)
ARAF = ARAF (UniProt P10398)
AURKA = AURKA (UniProt O14965)
AURKB = AURKB (UniProt Q96GD4)
AURKC = AURKC (UniProt Q9UQB9)
BLK = BLK (UniProt P51451)
BRAF = BRAF (UniProt P15056)
BMX = BMX (UniProt P51813)

Measured: kinase-Nluc reporter destabilization hit call

C=CC(=O)N1C[C@H](Nc2ncnc3[nH]ccc23)CC[C@@H]1C [Ritlecitinib] (10 µM)
inactive: ABL1 = 0 | AKT1 = 0 | ALK 0 | ARAF 0 | AURKA 0 | AURKB 0 | AURKC 0 | BLK 0 | BRAF 0

C[C@H](CN(C)C)Oc1nc(Nc2cc3cccc(Cl)c3cn2)cnc1C#N (10 µM)
inactive: ABL1 = 0 | AKT1 = 0 | ALK 0 | ARAF 0 | AURKA 0 | AURKB 0 | AURKC 0 | BLK 0 | BMX 0 | BRAF 0

O=C([O-])c1ccccc1O.[Na+] [Sodium Salicylate] (10 µM)
inactive: ABL1 = 0 | AKT1 = 0 | ALK 0 | ARAF 0 | AURKA 0 | AURKB 0 | AURKC 0 | BLK 0 | BMX 0 | BRAF 0

CCOc1cc2ncc(-c3cc(N)nc(F)c3)n2cc1S(=O)(=O)C(C)(C)C (10 µM)
inactive: ABL1 = 0 | AKT1 = 0 | ALK 0 | ARAF 0 | AURKA 0 | AURKB 0 | AURKC 0 | BLK 0 | BMX 0 | BRAF 0

Part of the list above in order of molar mass, smallest number first.
C=CC(=O)N1C[C@H](Nc2ncnc3[nH]ccc23)CC[C@@H]1C [Ritlecitinib] (10 µM)
inactive: ABL1 = 0 | AKT1 = 0 | ALK 0 | ARAF 0 | AURKA 0 | AURKB 0 | AURKC 0 | BLK 0 | BRAF 0

C[C@H](CN(C)C)Oc1nc(Nc2cc3cccc(Cl)c3cn2)cnc1C#N (10 µM)
inactive: ABL1 = 0 | AKT1 = 0 | ALK 0 | ARAF 0 | AURKA 0 | AURKB 0 | AURKC 0 | BLK 0 | BMX 0 | BRAF 0

CCOc1cc2ncc(-c3cc(N)nc(F)c3)n2cc1S(=O)(=O)C(C)(C)C (10 µM)
inactive: ABL1 = 0 | AKT1 = 0 | ALK 0 | ARAF 0 | AURKA 0 | AURKB 0 | AURKC 0 | BLK 0 | BMX 0 | BRAF 0

Following part.

CCN(CC)CCCCNc1ncc2cc(-c3c(Cl)cccc3Cl)c(NC(=O)NC(C)(C)C)nc2n1 (2.5 µM)
inactive: ABL1 = 0 | AKT1 = 0 | ALK 0 | ARAF 0 | AURKA 0 | AURKB 0 | AURKC 0 | BLK 0 | BMX 0 | BRAF 0

N#C/C(=C\c1ccc(O)c(O)c1)C(=O)NCc1ccccc1 (10 µM)
inactive: ABL1 = 0 | AKT1 = 0 | ALK 0 | ARAF 0 | AURKA 0 | AURKB 0 | AURKC 0 | BLK 0 | BMX 0 | BRAF 0

COc1ccc(F)c(F)c1C(=O)c1cnc(NC2CCN(S(C)(=O)=O)CC2)nc1N (2.5 µM)
inactive: ABL1 = 0 | AKT1 = 0 | ALK 0 | ARAF 0 | AURKA 0 | AURKB 0 | AURKC 0 | BLK 0 | BMX 0 | BRAF 0

O=C(c1ccc(-c2ccc(Cl)cc2)o1)N(Cc1ccccn1)c1ccc(N2CCNCC2)cc1 [MK2-IN-1 (hydrochloride)] (10 µM)
inactive: ABL1 = 0 | AKT1 = 0 | ALK 0 | ARAF 0 | AURKA 0 | AURKB 0 | AURKC 0 | BLK 0 | BMX 0 | BRAF 0

O=c1c(O)c(-c2ccc(O)c(O)c2)oc2cc(O)cc(O)c12 [Quercetin (dihydrate)] (10 µM)
inactive: ABL1 = 0 | AKT1 = 0 | ALK 0 | ARAF 0 | AURKA 0 | AURKB 0 | AURKC 0 | BLK 0 | BMX 0 | BRAF 0

COc1ccc2c(NC(=O)Nc3cccc(C(F)(F)F)n3)ccnc2c1 (10 µM)
inactive: ABL1 = 0 | AKT1 = 0 | ALK 0 | ARAF 0 | AURKA 0 | AURKB 0 | AURKC 0 | BLK 0 | BMX 0 | BRAF 0

C=CC(=O)N1CCC[C@@H](n2nc(-c3ccc(Oc4ccccc4)cc3)c(C(N)=O)c2N)C1 [Btk inhibitor 2] (10 µM)
inactive: ABL1 = 0 | AKT1 = 0 | ALK 0 | ARAF 0 | AURKA 0 | AURKB 0 | AURKC 0 | BLK 0 | BMX 0 | BRAF 0

CCn1c(=O)c2cc(C(N)=O)c(N)nc2n(C2CC2)c1=O (10 µM)
inactive: ABL1 = 0 | AKT1 = 0 | ALK 0 | ARAF 0 | AURKA 0 | AURKB 0 | AURKC 0 | BLK 0 | BMX 0 | BRAF 0

FC(F)(F)c1ccc(CNc2ccc(Cc3c[nH]c4ncc(Cl)cc34)cn2)cc1 (10 µM)
inactive: ABL1 = 0 | AKT1 = 0 | ALK 0 | ARAF 0 | AURKA 0 | AURKB 0 | AURKC 0 | BLK 0 | BMX 0 | BRAF 0

COc1cc2nc(C)nc(N[C@H](C)c3cc(N)cc(C(F)(F)F)c3)c2cc1O[C@H]1CCOC1 (10 µM)
inactive: ABL1 = 0 | AKT1 = 0 | ALK 0 | ARAF 0 | AURKA 0 | AURKB 0 | AURKC 0 | BLK 0 | BMX 0 | BRAF 0

CN(c1ncccc1CNc1nc(Nc2ccc3c(c2)CC(=O)N3)ncc1C(F)(F)F)S(C)(=O)=O (2.5 µM)
inactive: ABL1 = 0 | AKT1 = 0 | ALK 0 | ARAF 0 | AURKA 0 | AURKB 0 | AURKC 0 | BLK 0 | BMX 0 | BRAF 0

NS(=O)(=O)c1ccc(Nc2nc(OCC3CCCCC3)c3[nH]cnc3n2)cc1 (10 µM)
inactive: ABL1 = 0 | AKT1 = 0 | ALK 0 | ARAF 0 | AURKA 0 | AURKB 0 | AURKC 0 | BLK 0 | BMX 0 | BRAF 0

CC(C)Oc1cc(Nc2nc(N[C@@H](C)c3ccc(F)cn3)ncc2Cl)n[nH]1 (10 µM)
inactive: ABL1 = 0 | AKT1 = 0 | ALK 0 | ARAF 0 | AURKA 0 | AURKB 0 | AURKC 0 | BLK 0 | BMX 0 | BRAF 0

COC(=O)c1ccc2c(C(=Nc3ccc(N(C)C(=O)CN4CCN(C)CC4)cc3)c3ccccc3)c(O)[nH]c2c1 [Nintedanib] (2.5 µM)
inactive: ABL1 = 0 | AKT1 = 0 | ALK 0 | ARAF 0 | AURKA 0 | AURKB 0 | AURKC 0 | BLK 0 | BMX 0 | BRAF 0

Nc1ncnc2c1c(-c1cccc(OCc3ccccc3)c1)cn2C1CC(CN2CCCC2)C1 (stereo not drawn) (2.5 µM)
inactive: ABL1 = 0 | AKT1 = 0 | ALK 0 | ARAF 0 | AURKA 0 | AURKB 0 | AURKC 0 | BLK 0 | BMX 0 | BRAF 0

Cc1c(Cn2c(C)nc3c(C(=O)O)cc(N4CCOCC4)cc32)cccc1C(F)(F)F (10 µM)
inactive: ABL1 = 0 | AKT1 = 0 | ALK 0 | ARAF 0 | AURKA 0 | AURKB 0 | AURKC 0 | BLK 0 | BMX 0 | BRAF 0

COc1cc(OC)cc(N(CCNC(C)C)c2ccc3ncc(-c4cnn(C)c4)nc3c2)c1 [Erdafitinib] (2.5 µM)
inactive: ABL1 = 0 | AKT1 = 0 | ALK 0 | ARAF 0 | AURKA 0 | AURKB 0 | AURKC 0 | BLK 0 | BMX 0 | BRAF 0

COc1cc2c(Nc3ccc(Br)cc3F)ncnc2cc1OCCn1ccnn1 (10 µM)
inactive: ABL1 = 0 | AKT1 = 0 | ALK 0 | ARAF 0 | AURKA 0 | AURKB 0 | AURKC 0 | BLK 0 | BMX 0 | BRAF 0

CC(C)(C)c1nc2c3cc[nH]c(=O)c3c3cc(F)ccc3c2[nH]1 [Pyridone 6] (10 µM)
inactive: ABL1 = 0 | AKT1 = 0 | ALK 0 | ARAF 0 | AURKA 0 | AURKB 0 | AURKC 0 | BLK 0 | BMX 0 | BRAF 0

Cc1cc(F)c(C(=O)Nc2cccc(-c3nncn3C(C)C)n2)cc1-n1cnc(C2CC2)c1 [Selonsertib] (10 µM)
inactive: ABL1 = 0 | AKT1 = 0 | ALK 0 | ARAF 0 | AURKA 0 | AURKB 0 | AURKC 0 | BLK 0 | BMX 0 | BRAF 0

C=CC(=O)N[C@H]1COC[C@H]1Nc1ncc2cc(-c3c(Cl)c(OC)cc(OC)c3Cl)c(=O)n(C)c2n1 (10 µM)
inactive: ABL1 = 0 | AKT1 = 0 | ALK 0 | ARAF 0 | AURKA 0 | AURKB 0 | AURKC 0 | BLK 0 | BMX 0 | BRAF 0

CN(C)C[C@@H]1CCn2cc(c3ccccc32)C2=C(C(=O)NC2=O)c2cn(c3ccccc23)CCO1 [Ruboxistaurin (hydrochloride)] (10 µM)
inactive: ABL1 = 0 | AKT1 = 0 | ALK 0 | ARAF 0 | AURKA 0 | AURKB 0 | AURKC 0 | BLK 0 | BMX 0 | BRAF 0

N#Cc1ccc2[nH]c(O)c(-c3ccc(CN4CCOCC4)cn3)c2c1 (10 µM)
inactive: ABL1 = 0 | AKT1 = 0 | ALK 0 | ARAF 0 | AURKA 0 | AURKB 0 | AURKC 0 | BLK 0 | BMX 0 | BRAF 0

CC(C)(/C=C(\C#N)C(=O)N1CCC[C@@H](n2nc(-c3ccc(Oc4ccccc4)cc3F)c3c(N)ncnc32)C1)N1CCN(C2COC2)CC1 (2.5 µM)
inactive: ABL1 = 0 | AKT1 = 0 | ALK 0 | ARAF 0 | AURKA 0 | AURKB 0 | AURKC 0 | BLK 0 | BMX 0 | BRAF 0

CC(C)=CC/C=C(\C)[C@H]1CC[C@]2(C)[C@@H]1[C@H](O)C[C@@H]1[C@@]3(C)CC[C@H](O[C@@H]4O[C@H](CO)[C@@H](O)[C@H](O)[C@H]4O[C@@H]4O[C@H](CO)[C@@H](O)[C@H](O)[C@H]4O)C(C)(C)[C@@H]3CC[C@]12C [Ginsenoside Rg5] (10 µM)
inactive: ABL1 = 0 | AKT1 = 0 | ALK 0 | ARAF 0 | AURKA 0 | AURKB 0 | AURKC 0 | BLK 0 | BMX 0 | BRAF 0

CCCn1cnc2c(NCc3ccccc3)nc(NC(CC)CO)nc21 (stereo not drawn) [Ca2+ channel agonist 1] (2.5 µM)
inactive: ABL1 = 0 | AKT1 = 0 | ALK 0 | ARAF 0 | AURKA 0 | AURKB 0 | AURKC 0 | BLK 0 | BMX 0 | BRAF 0

COc1nccc(-c2c(-c3ccc(F)cc3)ncn2C2CCC(O)CC2)n1 (stereo not drawn) (10 µM)
inactive: ABL1 = 0 | AKT1 = 0 | ALK 0 | ARAF 0 | AURKA 0 | AURKB 0 | AURKC 0 | BLK 0 | BMX 0 | BRAF 0

CC#CC(=O)N[C@H]1CCCN(c2c(F)cc(C(N)=O)c3[nH]c(C)c(C)c23)C1 [Branebrutinib] (10 µM)
inactive: ABL1 = 0 | AKT1 = 0 | ALK 0 | ARAF 0 | AURKA 0 | AURKB 0 | AURKC 0 | BLK 0 | BRAF 0

CCCCC[C@H](O)CC(=O)CCc1ccc(O)c(OC)c1 [[6]-Gingerol] (10 µM)
inactive: ABL1 = 0 | AKT1 = 0 | ALK 0 | ARAF 0 | AURKA 0 | AURKB 0 | AURKC 0 | BLK 0 | BMX 0 | BRAF 0

CN(C)C(=O)/C(C#N)=C/c1ccc(-c2nc3cnc4[nH]ccc4c3n2C2CCCCC2)o1 (10 µM)
inactive: ABL1 = 0 | AKT1 = 0 | ALK 0 | ARAF 0 | AURKA 0 | AURKB 0 | AURKC 0 | BLK 0 | BMX 0 | BRAF 0

CC(=O)NCC(=O)N1[C@@H]2CC[C@H]1c1ccc(Nc3ncc(C(F)(F)F)c(NC4CCC4)n3)cc12 (2.5 µM)
inactive: ABL1 = 0 | AKT1 = 0 | ALK 0 | ARAF 0 | AURKA 0 | AURKB 0 | AURKC 0 | BLK 0 | BMX 0 | BRAF 0

COc1ccc(C=C(C#N)c2cccnc2)cc1OC (10 µM)
inactive: ABL1 = 0 | AKT1 = 0 | ALK 0 | ARAF 0 | AURKA 0 | AURKB 0 | AURKC 0 | BLK 0 | BMX 0 | BRAF 0

COCCOc1cc2nccc(Nc3n[nH]c(C)c3C)c2cc1S(=O)(=O)C(C)(C)C [RIP2 kinase inhibitor 2] (2.5 µM)
inactive: ABL1 = 0 | AKT1 = 0 | ALK 0 | ARAF 0 | AURKA 0 | AURKB 0 | AURKC 0 | BLK 0 | BMX 0 | BRAF 0

CC(C)(C)n1nc(Cc2cccc3ccccc23)c2c(N)ncnc21 (10 µM)
inactive: ABL1 = 0 | AKT1 = 0 | ALK 0 | ARAF 0 | AURKA 0 | AURKB 0 | AURKC 0 | BLK 0 | BMX 0 | BRAF 0

CCCS(=O)(=O)Nc1ccc(F)c(C(=O)c2c[nH]c3ncc(Cl)cc23)c1F (10 µM)
inactive: ABL1 = 0 | AKT1 = 0 | ALK 0 | ARAF 0 | AURKA 0 | AURKB 0 | AURKC 0 | BLK 0 | BMX 0 | BRAF 0
